Measurements as given in patent US12509437B2, “Substituted thiophene carboxamides and derivatives thereof as microbicides” (Bayer Aktiengesellschaft, priority 2019, dated 2025).
Some of these results come from one statement about several compounds together.

Key:
[1] = tested on: salicylate responsive promoter sequence of the PR1 (pathogenesis-related protein I) gene (AT2G14610); assay: Induction of defense gene expression in Arabidopsis thaliana (PR1 promoter-GFP reporter plants); type: in vivo; conditions: 3rd day after spraying, mock treated leaves set as 1.00
Outline: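 Transgenic A. thaliana carrying GFP under the salicylate-responsive PR1 promoter, grown five days, then sprayed with compounds. Whole-plant fluorescence imaged and quantified on day 3 post-spray, expressed relative to mock-treated leaf background set at 1.00.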

[2] = tested on: Alternaria alternata; assay: Alternaria alternata in vitro cell test; type: cell-based; conditions: 5 days incubation
Outline: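 A. alternata spores in glucose/peptone/yeast-extract liquid medium were exposed to DMSO-solubilized compound (final DMSO ≤1%). After 5 days incubation, mycelium growth read spectrometrically; inhibition derived from absorbance relative to fungicide-free control wells.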

[3] = tested on: Pseudomonas syringae pv. tomato; assay: Pseudomonas syringae pv. tomato in vitro cell test; type: cell-based; conditions: 20 ppm of active ingredient; 24 h of incubation
Outline: (§1)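 Bacteria from liquid pre-culture diluted to set OD in LB broth and exposed to compounds dissolved in DMSO (final ≤1%). After 24 h, growth read by absorbance; inhibition derived relative to compound-free control wells.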

[4] = tested on: Xanthomonas campestris pv. campestris; assay: Xanthomonas campestris pv. campestris in vitro cell test; type: cell-based; conditions: 24 h of incubation
Outline: as §1

[5] = tested on: Colletotrichum lindemuthianum; assay: Colletotrichum lindemuthianum in vitro cell test; type: cell-based; conditions: 6 days incubation
Outline: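 C. lindemuthianum spore suspension grown in liquid glucose/peptone/yeast-extract medium with compound (final DMSO ≤1%). After 6 days, mycelial growth measured by absorbance; inhibition calculated versus fungicide-free control wells.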

Row | SMILES | relative fluorescence value ([1]; 300 ppm) | efficacy (inhibition of fungal growth; no direct activity) ([2]; 5 ppm of active ingredient) | efficacy (inhibition of fungal growth; no direct activity) ([2]; 20 ppm of active ingredient) | efficacy (inhibition of bacteria growth; no direct activity) [3] | efficacy (inhibition of bacteria growth; no direct activity) ([4]; 5 ppm of active ingredient) | efficacy (inhibition of bacteria growth; no direct activity) ([4]; 20 ppm of active ingredient) | efficacy (inhibition of fungal growth; no direct activity) ([5]; 5 ppm of active ingredient) | efficacy (inhibition of fungal growth; no direct activity) ([5]; 20 ppm of active ingredient) | relative fluorescence value ([1]; 75 ppm)
1 | CCOC(=O)C(CC1CC1)NC(=O)c1sc(Br)c(Br)c1C (stereo not drawn) [I.092] | above 2 | ≤ 30% | ≤ 30% | ≤ 30% | ≤ 30% | ≤ 30% | ≤ 30% | ≤ 30% | –
2 | CCOC(=O)C(NC(=O)c1sc(Br)c(Br)c1C)C(=O)OCC [I.094] | above 2 | ≤ 30% | ≤ 30% | ≤ 30% | ≤ 30% | ≤ 30% | ≤ 30% | ≤ 30% | above 2
3 | Cc1c(C(=S)NC2(C(=O)O)CC2)sc(Br)c1Br [I.102] | above 2 | ≤ 30% | ≤ 30% | ≤ 30% | ≤ 30% | ≤ 30% | ≤ 30% | ≤ 30% | above 2
4 | COC(=O)[C@H](CCC(=O)O)NC(=O)c1sc(Cl)c(Cl)c1C [I.103] | above 2 | ≤ 30% | ≤ 30% | ≤ 30% | ≤ 30% | ≤ 30% | ≤ 30% | ≤ 30% | –
5 | COC(=O)[C@H](CCC(=O)O)NC(=O)c1sc(Br)c(Br)c1C [I.104] | above 2 | ≤ 30% | ≤ 30% | ≤ 30% | ≤ 30% | ≤ 30% | ≤ 30% | ≤ 30% | above 2
6 | COC(=O)[C@H](Cc1ccccc1)NC(=O)[C@H](CC(=O)O)NC(=O)c1sc(Br)c(Br)c1C [I.105] | above 2 | ≤ 30% | ≤ 30% | ≤ 30% | ≤ 30% | ≤ 30% | ≤ 30% | ≤ 30% | above 2
7 | CNC(=O)CNC(=O)c1sc(Cl)c(Cl)c1C [I.110] | above 2 | ≤ 30% | ≤ 30% | ≤ 30% | ≤ 30% | ≤ 30% | ≤ 30% | ≤ 30% | above 2
8 | COC(=O)CNC(=S)c1sc(Cl)c(Cl)c1C [I.113] | above 2 | ≤ 30% | – | ≤ 30% | ≤ 30% | ≤ 30% | ≤ 30% | – | above 2
9 | COC(=O)C(C1CC1)N(O)C(=O)c1sc(Cl)c(Cl)c1C (stereo not drawn) [I.114] | above 2 | ≤ 30% | ≤ 30% | ≤ 30% | ≤ 30% | ≤ 30% | ≤ 30% | – | –
10 | Cc1c(C(=O)NC(C(=O)NO)C(C)C)sc(Br)c1Br (stereo not drawn) [I.115] | above 2 | ≤ 30% | ≤ 30% | ≤ 30% | ≤ 30% | ≤ 30% | ≤ 30% | ≤ 30% | above 2
11 | CCOC(=O)CN(O)C(=O)c1sc(Cl)c(Cl)c1C [I.116] | above 2 | ≤ 30% | – | ≤ 30% | ≤ 30% | ≤ 30% | ≤ 30% | – | –
12 | COC(=O)C(CCSC(C)=O)NC(=O)c1sc(Cl)c(Cl)c1C (stereo not drawn) [I.117] | above 2 | ≤ 30% | – | ≤ 30% | ≤ 30% | ≤ 30% | ≤ 30% | ≤ 30% | –
13 | COC(=O)CC(NC(=O)c1sc(Cl)c(Cl)c1C)C(=O)OC (stereo not drawn) [I.118] | above 2 | ≤ 30% | ≤ 30% | ≤ 30% | ≤ 30% | ≤ 30% | ≤ 30% | ≤ 30% | above 2
14 | COC(=O)[C@H](CSC(=O)N(C)C)NC(=O)c1sc(Cl)c(Cl)c1C [I.119] | above 2 | ≤ 30% | ≤ 30% | ≤ 30% | ≤ 30% | ≤ 30% | ≤ 30% | ≤ 30% | above 2
15 | CCNC(=O)SC[C@H](NC(=O)c1sc(Cl)c(Cl)c1C)C(=O)OC [I.120] | above 2 | ≤ 30% | ≤ 30% | ≤ 30% | ≤ 30% | ≤ 30% | ≤ 30% | ≤ 30% | –
16 | CNC(=S)SC[C@H](NC(=O)c1sc(Cl)c(Cl)c1C)C(=O)OC [I.121] | above 2 | ≤ 30% | – | ≤ 30% | ≤ 30% | ≤ 30% | ≤ 30% | – | –
17 | CCOC(=O)CC(NC(=O)c1sc(Cl)c(Cl)c1C)C(=O)OCC (stereo not drawn) [I.123] | above 2 | ≤ 30% | ≤ 30% | ≤ 30% | ≤ 30% | ≤ 30% | ≤ 30% | ≤ 30% | above 2
18 | CCOC(=O)CCC(NC(=O)c1sc(Cl)c(Cl)c1C)C(=O)OCC (stereo not drawn) [I.124] | above 2 | ≤ 30% | ≤ 30% | ≤ 30% | ≤ 30% | ≤ 30% | ≤ 30% | ≤ 30% | above 2
19 | COC(=O)[C@H](CC(=O)OC(C)(C)C)NC(=O)c1sc(Cl)c(Cl)c1C [I.125] | above 2 | ≤ 30% | ≤ 30% | ≤ 30% | ≤ 30% | ≤ 30% | ≤ 30% | ≤ 30% | above 2
